Values as published with doi:10.1371/journal.pone.0140310, rounded.

Compounds and concentrations:
GW0742: Cc1cc(SCc2sc(-c3ccc(C(F)(F)F)c(F)c3)nc2C)ccc1OCC(=O)O at 10 µM
crizotinib: C[C@@H](Oc1cc(-c2cnn(C3CCNCC3)c2)cnc1N)c1c(Cl)ccc(F)c1Cl at 1 µM
dovitinib: CN1CCN(c2ccc3nc(-c4c(N)c5c(F)cccc5[nH]c4=O)[nH]c3c2)CC1 at 0.5 µM
decitabine: Nc1ncn([C@H]2C[C@H](O)[C@@H](CO)O2)c(=O)n1 at 0.5 µM
etoposide: COc1cc([C@@H]2c3cc4c(cc3[C@@H](O[C@@H]3O[C@@H]5CO[C@@H](C)O[C@H]5[C@H](O)[C@H]3O)[C@H]3COC(=O)[C@H]23)OCO4)cc(OC)c1O at 0.1 µM
KU-0063794: COc1ccc(-c2ccc3c(N4CCOCC4)nc(N4C[C@@H](C)O[C@@H](C)C4)nc3n2)cc1CO at 0.1 µM
tozasertib: Cc1cc(Nc2cc(N3CCN(C)CC3)nc(Sc3ccc(NC(=O)C4CC4)cc3)n2)n[nH]1 at 0.03 µM
temozolomide: Cn1nnc2c(C(N)=O)ncn2c1=O at 10 µM
PLX4720: CCCS(=O)(=O)Nc1ccc(F)c(C(=O)c2c[nH]c3ncc(Cl)cc23)c1F at 0.4 µM

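The test systems are human melanoma cell lines, treated with a pair of drugs for 72 h and then stained and imaged. The read-out is the fraction of cleaved-PARP-positive nuclei, in % of that fraction in the DMSO control; 200 means twice the control level of this apoptosis marker. Concentrations were fixed for each drug; these are the higher of two levels. These are primary screening values without error estimates. Basal and induced levels differ widely between cell lines.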
An unselected part of the screen is shown.

Drugs | A2058 | MEL-HO | WM3526 | UACC-62 | COLO 829 | WM1716
dovitinib + PLX4720 | 496 | 162 | 370 | 351 | 252 | 322
GW0742 + decitabine | 161 | 178 | 151 | 307 | 87.4 | 84.0
etoposide + temozolomide | 678 | 78.2 | 123 | 277 | 168 | 170
PLX4720 + GW0742 | 106 | 92.0 | 440 | 380 | 118 | 156
crizotinib + etoposide | 272 | 115 | 134 | 197 | 94.2 | 89.2
tozasertib + KU-0063794 | 108 | 48.0 | 157 | 237 | 89.8 | 209
dovitinib + etoposide | 968 | 174 | 125 | 317 | 98.0 | 298
crizotinib + dovitinib | 785 | 102 | 133 | 179 | 204 | 94.3
KU-0063794 + PLX4720 | 103 | 105 | 246 | 304 | 256 | 258
decitabine + temozolomide | 640 | 109 | 89.7 | 170 | 86.2 | 236
crizotinib + decitabine | 230 | 103 | 100 | 260 | 133 | 147
tozasertib + GW0742 | 128 | 84.7 | 115 | 201 | 90.9 | 95.5
temozolomide + GW0742 | 499 | 48.2 | 75.4 | 45.0 | 161 | 431
decitabine + dovitinib | 1280 | 56.5 | 298 | 136 | 172 | 240
crizotinib + tozasertib | 447 | 46.5 | 210 | 208 | 140 | 187
decitabine + KU-0063794 | 92.5 | 209 | 74.2 | 249 | 314 | 46.5
tozasertib + etoposide | 240 | 44.4 | 64.4 | 359 | 156 | 95.8
crizotinib + PLX4720 | 99.7 | 237 | 238 | 199 | 109 | 66.3
PLX4720 + decitabine | 140 | 55.5 | 342 | 279 | 205 | 143
temozolomide + PLX4720 | 415 | 88.3 | 374 | 283 | 176 | 438
KU-0063794 + temozolomide | 415 | 50.6 | 51.4 | 53.6 | 121 | 773
crizotinib + temozolomide | 395 | 140 | 122 | 205 | 56.8 | 308
PLX4720 + tozasertib | 218 | 31.8 | 467 | 545 | 221 | 183
etoposide + decitabine | 170 | 84.8 | 44.7 | 212 | 111 | 208
KU-0063794 + etoposide | 158 | 51.1 | 93.6 | 187 | 42.3 | 322
GW0742 + dovitinib | 254 | 194 | 101 | 115 | 201 | 47.4
tozasertib + decitabine | 455 | 103 | 190 | 320 | 97.1 | 120
GW0742 + KU-0063794 | 34.5 | 54.3 | 97.9 | 121 | 138 | 81.7
temozolomide + dovitinib | 640 | 88.0 | 239 | 215 | 239 | 193
KU-0063794 + dovitinib | 81.6 | 271 | 165 | 175 | 136 | 106
dovitinib + tozasertib | 484 | 117 | 90.1 | 138 | 237 | 116
GW0742 + crizotinib | 129 | 124 | 159 | 144 | 157 | 74.5

The first 3 entries again:

Drugs	A2058	MEL-HO	WM3526	UACC-62	COLO 829	WM1716
dovitinib + PLX4720	496	162	370	351	252	322
GW0742 + decitabine	161	178	151	307	87.4	84.0
etoposide + temozolomide	678	78.2	123	277	168	170